Data: US20240398788A1, “METHODS OF TREATING CANCER USING HSF1 PATHWAY INHIBITORS” (Institute of Cancer Research, priority 2021, published 2024)

Key:
[1] = test system: OVCAR-5 ovarian cancer xenograft (ARID1A wildtype); settings: OVCAR-5 model, mice, oral dosing
Description: (§1) Once the tumours were established, mice were randomised into vehicle control and treatment groups. Mice in both the vehicle control and treatment groups that were removed during the course of the study due to spontaneous or treatment derived tumour regression, tumour growth approaching license limits, tumour ulceration or loss of condition were excluded from the final analysis of the mean tumour volume and standard error of the mean and up to the point they were removed from the study. The number of mice undergoing complete tumour regression in the treatment group is noted where applicable.
(§2) Two groups of 12 female NCr nude mice (3 groups of 10 for SK-OV-3) were injected with 3-5×10^6 cells of one of the above cancer cell lines, subcutaneously. […] Body weights were taken daily and animals were monitored for signs of toxicity. To evaluate drug levels the animals were euthanised in batches of 3 to 4 at 2, 6 and 24 hours after the last dose and terminal plasma and tumour samples collected for PK analysis.

[2] = test system: RMG1 ovarian cancer xenograft (ARID1A wildtype); settings: RMG1 model, mice, oral dosing
Description: as §1, §2

[3] = test system: ES-2 ovarian cancer xenograft (ARID1A wildtype); settings: ES-2 model, mice, oral dosing
Description: as §1, §2

CCN1CCN(Cc2ccc3cc(C(=O)Nc4cc(NC(=O)c5ccc6c(c5)OCCO6)ccc4F)ccc3n2)CC1 [Compound A, N-(5-(2,3-Dihydrobenzo[b][1,4]dioxine-6-carboxamido)-2-fluorophenyl)-2-((4-ethylpiperazin-1-yl)methyl)quinoline-6-carboxamide]
Plasma Cmax [1]: within the range seen in successful efficacy studies | Plasma Cmax [2]: less than half the lowest level seen in successful efficacy studies | Plasma Cmax [3]: within the range seen in successful efficacy studies
